Data on one substance can be found in PMC8625150.

Protein sequences, listed by entry. Tags and fused reporters are not part of them.
UniProt P28066: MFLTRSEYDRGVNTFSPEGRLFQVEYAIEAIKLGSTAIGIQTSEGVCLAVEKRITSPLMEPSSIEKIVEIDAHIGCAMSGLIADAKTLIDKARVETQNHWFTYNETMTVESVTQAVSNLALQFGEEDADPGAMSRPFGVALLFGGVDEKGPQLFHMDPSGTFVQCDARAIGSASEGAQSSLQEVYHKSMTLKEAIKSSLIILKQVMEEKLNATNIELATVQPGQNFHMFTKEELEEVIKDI

No constants are given. Whether binding was seen depends on the method and setting. Binding seen in cells or lysates may run through a third protein. These calls come from enrichment with a bait or labelling near it, and not all partners need be listed. Where a sequence is shown, tags or fusion partners need not be part of it.

In this assay the target is T1, FLAG-CLEC12A (human) (UniProt Q5QGZ9).
T1 sequence: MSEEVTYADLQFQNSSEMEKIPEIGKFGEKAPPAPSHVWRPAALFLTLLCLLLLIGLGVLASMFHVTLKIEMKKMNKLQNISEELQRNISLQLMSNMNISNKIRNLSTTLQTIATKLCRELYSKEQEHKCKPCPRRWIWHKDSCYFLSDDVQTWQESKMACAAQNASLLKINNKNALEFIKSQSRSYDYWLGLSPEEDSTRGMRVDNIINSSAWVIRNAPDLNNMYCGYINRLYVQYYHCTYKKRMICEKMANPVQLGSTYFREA
The assay can be described thus: affinity purification with mass spectrometry; whole cell extracts of U-937 cells expressing the FLAG-tagged bait incubated with anti-FLAG beads for 2 h; six washes in 200 mM NaCl, 50 mM Tris-HCl, 0.25% IGEPAL, pH 7.9; on-bead trypsin/LysC digestion; label-free LC-MS/MS; three replicates.

As to PSA5 (from UniProt P28066 1-241), the binding entry is on record as “binds”.
